Measurements: patent US20060241122A1, “Combination therapy for the treatment of neoplasms” (priority 2003, published 2006)
Like-named read-outs stand apart in the source and are kept apart here.

Key:
[1] = test system: human prostate cancer DU145 cells; assay: Anti-proliferation assay (Alamar Blue metabolism), DU145 cells; type: cell-based
Excerpt: (§1) The combination matrices were used immediately and discarded.

[2] = test system: human colorectal carcinoma HCT116 cells; assay: Anti-proliferation assay (Alamar Blue metabolism), HCT116 cells;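 also: cells in 384-well plates exposed to compound combination matrices for 72 h, Alamar Blue fluorescence read (excitation 530 nm), inhibition calculated against mean of vehicle-only wells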
[3] = test system: human melanoma SKMEL-28 cells; assay: Anti-proliferation assay (Alamar Blue metabolism), SKMEL-28 cells; type: cell-based; details: SK-MEL-28, read-out: maximal inhibition
Excerpt: as §1

[4] = test system: human pancreatic cancer PANC1 cells; assay: Anti-proliferation assay (Alamar Blue metabolism), PANC1 cells; type: cell-based; details: PANC-1, PANC1 cells
Excerpt: as §1

[5] = HCT-116, read-out: Percent inhibition of Alamar Blue Metabolism, atorvastatin […], clotrimazole 0.0 μM

Question: How did the inhibition ([1]; DU145 cells, atorvastatin in the presence of 28 μM itraconazole) turn out when `CC(C)c1c(C(=O)Nc2ccccc2)c(-c2ccccc2)c(-c2ccc(F)cc2)n1CC[C@@H](O)C[C@@H](O)CC(=O)O` [Atorvastatin, atorvastatin] was run?
Answer: The inhibition was 55.6%.

Question: And the inhibition at 36 µM ([1]; Homo sapiens, DU-145, DU145 cells, atorvastatin 36 μM alone, read-out: maximal inhibition)?
Answer: Its inhibition at 36 µM is 25.6%.

Question: And the inhibition at 18 µM ([2]; HCT-116, HCT116 cells, 18 μM atorvastatin + […] ketoconazole)?
Answer: The inhibition at 18 µM was 68.3%.

Question: And the inhibition at 0.28 µM ([2]; HCT-116, read-out: Percent inhibition of Alamar Blue Metabolism, atorvastatin 0.28 μM, ketoconazole 0 μM)?
Answer: The inhibition at 0.28 µM was -4.3%.

Question: What about the inhibition at 0.28 µM ([2]; HCT-116, read-out: Percent inhibition of Alamar Blue Metabolism, atorvastatin 0.28 μM, terconazole 0 μM) of the same compound?
Answer: The inhibition at 0.28 µM was 0.3%.

Question: And the inhibition at 0.3 µM ([2]; HCT-116, read-out: Percent inhibition of Alamar Blue Metabolism, atorvastatin 0.3 μM, clotrimazole 0.0 μM)?
Answer: The inhibition at 0.3 µM was 8.1%.

Question: What about the inhibition at 0.3 µM ([2]; HCT-116, read-out: Percent inhibition of Alamar Blue Metabolism, atorvastatin 0.3 μM, econazole 0.0 μM) of the same compound?
Answer: Its inhibition at 0.3 µM is 2.7%.

Question: And the inhibition at 0.6 µM ([2]; HCT-116, read-out: Percent inhibition of Alamar Blue Metabolism, atorvastatin 0.6 μM, clotrimazole 0.0 μM)?
Answer: The inhibition at 0.6 µM was 19.3%.

Question: And the inhibition at 0.6 µM ([2]; HCT-116, read-out: Percent inhibition of Alamar Blue Metabolism, atorvastatin 0.6 μM, econazole 0.0 μM)?
Answer: Its inhibition at 0.6 µM is 2.5%.

Question: What about the inhibition at 9 µM ([2]; HCT-116, read-out: Percent inhibition of Alamar Blue Metabolism, atorvastatin 9.0 μM, clotrimazole 0.0 μM) of the same compound?
Answer: The inhibition at 9 µM was 56.8%.

Question: What about the inhibition at 9 µM ([2]; HCT-116, read-out: Percent inhibition of Alamar Blue Metabolism, atorvastatin 9.0 μM, econazole 0.0 μM) of the same compound?
Answer: Its inhibition at 9 µM is 32.8%.

Question: And the inhibition at 9 µM ([2]; HCT-116, read-out: Percent inhibition of Alamar Blue Metabolism, atorvastatin 9 μM, ketoconazole 0 μM)?
Answer: Its inhibition at 9 µM is 20.4%.

Question: And the inhibition at 9 µM ([2]; HCT-116, read-out: Percent inhibition of Alamar Blue Metabolism, atorvastatin 9 μM, terconazole 0 μM)?
Answer: Its inhibition at 9 µM is 21%.

Question: What about the inhibition at 18 µM ([2]; HCT-116, read-out: Percent inhibition of Alamar Blue Metabolism, atorvastatin 18 μM, ketoconazole 0 μM) of the same compound?
Answer: Its inhibition at 18 µM is 42.7%.

Question: And the inhibition at 18 µM ([2]; HCT-116, read-out: Percent inhibition of Alamar Blue Metabolism, atorvastatin 18 μM, terconazole 0 μM)?
Answer: Its inhibition at 18 µM is 40.2%.

Question: And the inhibition at 36 µM ([2]; HCT-116, read-out: Percent inhibition of Alamar Blue Metabolism, atorvastatin 36 μM, terconazole 0 μM)?
Answer: Its inhibition at 36 µM is 66.4%.

Question: And the inhibition at 18 µM [2, 5]?
Answer: The inhibition at 18 µM was 59.8%.

Question: And the inhibition at 36 µM [2, 5]?
Answer: Its inhibition at 36 µM is 89.3%.

Question: And the inhibition at 18 µM ([2]; HCT-116, read-out: Percent inhibition of Alamar Blue Metabolism, atorvastatin […], econazole 0.0 μM)?
Answer: Its inhibition at 18 µM is 53%.

Question: And the inhibition at 36 µM ([2]; HCT-116, read-out: maximal inhibition, HCT116 cells, atorvastatin 36 μM alone (Example 7))?
Answer: The inhibition at 36 µM was 69%.

Question: What about the inhibition at 36 µM ([2]; HCT-116, read-out: maximal inhibition, HCT116 cells, atorvastatin 36 μM alone (Example 17)) of the same compound?
Answer: Its inhibition at 36 µM is 89.3%.

Question: What about the inhibition at 36 µM ([2]; HCT-116, read-out: maximal inhibition, HCT116 cells, atorvastatin 36 μM alone (Example 21)) of the same compound?
Answer: The inhibition at 36 µM was 66.4%.

Question: What about the inhibition at 36 µM [3] of the same compound?
Answer: Its inhibition at 36 µM is 45.9%.

Question: What about the inhibition at 9 µM ([4]; 9 μM atorvastatin + 7 μM itraconazole) of the same compound?
Answer: Its inhibition at 9 µM is 36%.

Question: And the inhibition at 9 µM ([4]; 9 μM atorvastatin, absence of itraconazole)?
Answer: Its inhibition at 9 µM is 6.8%.

Question: What about the inhibition at 36 µM ([4]; atorvastatin 36 μM alone, read-out: maximal inhibition) of the same compound?
Answer: The inhibition at 36 µM was 37.5%.
